# Some of the results follow.
# Sequences of proteins named here, by UniProt entry; tags and fusion partners are left off. A change or cut given only in a name is not applied to a line headed by its entry.
# UniProt P13929, whole entry, looked up: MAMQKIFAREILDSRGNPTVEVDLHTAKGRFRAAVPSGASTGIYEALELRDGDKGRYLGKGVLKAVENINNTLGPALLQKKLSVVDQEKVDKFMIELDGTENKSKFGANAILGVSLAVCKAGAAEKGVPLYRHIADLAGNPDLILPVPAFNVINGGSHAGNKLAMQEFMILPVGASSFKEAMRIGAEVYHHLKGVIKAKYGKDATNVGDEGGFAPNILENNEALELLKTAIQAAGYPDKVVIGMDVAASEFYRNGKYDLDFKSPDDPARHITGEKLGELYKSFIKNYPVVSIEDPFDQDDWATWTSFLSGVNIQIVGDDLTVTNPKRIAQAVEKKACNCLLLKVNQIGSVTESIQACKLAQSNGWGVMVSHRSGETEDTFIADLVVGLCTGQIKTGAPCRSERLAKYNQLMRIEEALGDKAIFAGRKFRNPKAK
# UniProt P55884, whole entry, looked up: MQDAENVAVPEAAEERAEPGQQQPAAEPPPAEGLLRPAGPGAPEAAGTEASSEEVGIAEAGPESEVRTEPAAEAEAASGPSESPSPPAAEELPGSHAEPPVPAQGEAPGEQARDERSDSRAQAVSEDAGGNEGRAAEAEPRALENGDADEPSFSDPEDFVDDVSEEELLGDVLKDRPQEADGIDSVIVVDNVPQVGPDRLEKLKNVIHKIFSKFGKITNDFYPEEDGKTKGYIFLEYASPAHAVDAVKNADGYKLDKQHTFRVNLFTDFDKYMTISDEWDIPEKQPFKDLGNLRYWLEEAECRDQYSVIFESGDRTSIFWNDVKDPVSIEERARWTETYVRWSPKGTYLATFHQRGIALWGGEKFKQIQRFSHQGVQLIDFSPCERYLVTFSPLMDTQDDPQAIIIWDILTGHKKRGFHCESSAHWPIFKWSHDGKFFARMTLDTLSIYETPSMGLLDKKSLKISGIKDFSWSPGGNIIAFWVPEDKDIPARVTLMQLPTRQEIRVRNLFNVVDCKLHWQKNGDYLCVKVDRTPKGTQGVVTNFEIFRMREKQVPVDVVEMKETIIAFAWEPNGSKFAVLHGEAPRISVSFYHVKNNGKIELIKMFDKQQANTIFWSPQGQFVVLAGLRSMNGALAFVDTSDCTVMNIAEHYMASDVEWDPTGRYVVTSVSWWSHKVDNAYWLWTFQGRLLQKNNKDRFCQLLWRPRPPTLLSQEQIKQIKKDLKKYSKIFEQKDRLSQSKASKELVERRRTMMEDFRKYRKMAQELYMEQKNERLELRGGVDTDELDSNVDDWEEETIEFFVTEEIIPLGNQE
# UniProt O75354: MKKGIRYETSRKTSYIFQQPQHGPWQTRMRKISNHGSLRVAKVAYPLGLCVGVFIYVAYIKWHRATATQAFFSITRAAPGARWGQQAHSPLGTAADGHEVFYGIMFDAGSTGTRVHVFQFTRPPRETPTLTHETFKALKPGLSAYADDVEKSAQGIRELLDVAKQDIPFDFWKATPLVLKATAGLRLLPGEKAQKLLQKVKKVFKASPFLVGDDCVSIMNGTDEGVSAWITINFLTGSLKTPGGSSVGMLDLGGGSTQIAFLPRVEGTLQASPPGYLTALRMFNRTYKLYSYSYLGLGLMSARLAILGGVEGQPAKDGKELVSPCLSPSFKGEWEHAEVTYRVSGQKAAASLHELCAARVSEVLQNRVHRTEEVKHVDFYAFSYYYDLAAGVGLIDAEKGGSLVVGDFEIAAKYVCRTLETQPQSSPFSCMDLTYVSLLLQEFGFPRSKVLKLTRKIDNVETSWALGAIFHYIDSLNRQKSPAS
# UniProt O60739, whole entry, looked up: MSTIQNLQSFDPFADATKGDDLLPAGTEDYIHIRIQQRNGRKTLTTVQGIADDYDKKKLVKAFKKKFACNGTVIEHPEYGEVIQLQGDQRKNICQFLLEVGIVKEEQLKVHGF
# UniProt Q9BQI3, whole entry, looked up: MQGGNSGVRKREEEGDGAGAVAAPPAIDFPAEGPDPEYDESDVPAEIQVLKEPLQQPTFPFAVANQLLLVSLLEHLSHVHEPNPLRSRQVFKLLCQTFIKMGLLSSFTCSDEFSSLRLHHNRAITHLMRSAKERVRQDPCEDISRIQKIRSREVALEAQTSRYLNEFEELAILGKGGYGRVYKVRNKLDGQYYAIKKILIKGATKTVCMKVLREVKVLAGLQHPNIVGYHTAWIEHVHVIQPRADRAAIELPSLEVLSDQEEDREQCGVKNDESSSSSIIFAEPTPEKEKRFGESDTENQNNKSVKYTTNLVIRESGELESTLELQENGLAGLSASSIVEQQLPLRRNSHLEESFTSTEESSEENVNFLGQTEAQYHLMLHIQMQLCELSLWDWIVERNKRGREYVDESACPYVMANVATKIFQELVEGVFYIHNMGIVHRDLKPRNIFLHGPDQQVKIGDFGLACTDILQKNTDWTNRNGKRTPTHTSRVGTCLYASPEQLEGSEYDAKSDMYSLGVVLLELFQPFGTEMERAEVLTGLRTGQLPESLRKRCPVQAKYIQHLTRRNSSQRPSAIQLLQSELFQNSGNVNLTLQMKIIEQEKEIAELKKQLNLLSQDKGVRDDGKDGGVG
# UniProt O60573: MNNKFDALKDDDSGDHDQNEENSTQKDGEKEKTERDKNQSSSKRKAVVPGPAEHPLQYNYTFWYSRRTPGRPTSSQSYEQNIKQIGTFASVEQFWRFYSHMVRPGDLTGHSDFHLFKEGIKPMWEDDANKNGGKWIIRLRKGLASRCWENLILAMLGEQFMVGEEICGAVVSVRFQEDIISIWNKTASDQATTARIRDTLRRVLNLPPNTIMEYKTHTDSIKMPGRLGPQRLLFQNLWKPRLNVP
# UniProt Q8N6R0: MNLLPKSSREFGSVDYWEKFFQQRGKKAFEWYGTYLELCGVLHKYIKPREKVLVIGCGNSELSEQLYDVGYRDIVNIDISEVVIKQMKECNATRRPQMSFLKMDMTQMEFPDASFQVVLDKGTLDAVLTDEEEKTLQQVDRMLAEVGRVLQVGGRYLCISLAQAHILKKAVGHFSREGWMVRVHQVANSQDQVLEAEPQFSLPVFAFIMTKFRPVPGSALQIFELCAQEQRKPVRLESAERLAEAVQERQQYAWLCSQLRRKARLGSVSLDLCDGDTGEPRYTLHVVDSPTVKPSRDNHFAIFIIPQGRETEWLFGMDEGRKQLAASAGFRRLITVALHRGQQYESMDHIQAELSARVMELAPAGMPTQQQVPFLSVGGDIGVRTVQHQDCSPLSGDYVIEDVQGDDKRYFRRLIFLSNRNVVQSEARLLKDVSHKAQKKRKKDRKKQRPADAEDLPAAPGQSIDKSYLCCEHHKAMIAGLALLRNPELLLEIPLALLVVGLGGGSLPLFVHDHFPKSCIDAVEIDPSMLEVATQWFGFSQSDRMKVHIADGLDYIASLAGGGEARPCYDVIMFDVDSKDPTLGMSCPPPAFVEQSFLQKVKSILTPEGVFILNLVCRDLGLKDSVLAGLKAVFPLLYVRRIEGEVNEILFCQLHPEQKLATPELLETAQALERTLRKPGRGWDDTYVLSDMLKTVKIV
# UniProt Q12805: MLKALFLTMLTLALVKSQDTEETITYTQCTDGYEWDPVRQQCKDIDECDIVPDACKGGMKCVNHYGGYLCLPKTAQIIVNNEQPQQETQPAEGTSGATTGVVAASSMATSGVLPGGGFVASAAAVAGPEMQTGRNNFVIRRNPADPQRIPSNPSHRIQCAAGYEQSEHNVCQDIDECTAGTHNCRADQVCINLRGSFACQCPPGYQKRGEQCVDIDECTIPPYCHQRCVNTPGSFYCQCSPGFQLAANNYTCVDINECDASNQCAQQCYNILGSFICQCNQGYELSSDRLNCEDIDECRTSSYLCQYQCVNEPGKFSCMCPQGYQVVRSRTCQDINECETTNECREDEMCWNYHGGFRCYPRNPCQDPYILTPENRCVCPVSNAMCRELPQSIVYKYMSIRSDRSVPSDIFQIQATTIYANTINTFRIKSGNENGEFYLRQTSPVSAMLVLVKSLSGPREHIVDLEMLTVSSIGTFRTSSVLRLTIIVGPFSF
# UniProt P0DPD8: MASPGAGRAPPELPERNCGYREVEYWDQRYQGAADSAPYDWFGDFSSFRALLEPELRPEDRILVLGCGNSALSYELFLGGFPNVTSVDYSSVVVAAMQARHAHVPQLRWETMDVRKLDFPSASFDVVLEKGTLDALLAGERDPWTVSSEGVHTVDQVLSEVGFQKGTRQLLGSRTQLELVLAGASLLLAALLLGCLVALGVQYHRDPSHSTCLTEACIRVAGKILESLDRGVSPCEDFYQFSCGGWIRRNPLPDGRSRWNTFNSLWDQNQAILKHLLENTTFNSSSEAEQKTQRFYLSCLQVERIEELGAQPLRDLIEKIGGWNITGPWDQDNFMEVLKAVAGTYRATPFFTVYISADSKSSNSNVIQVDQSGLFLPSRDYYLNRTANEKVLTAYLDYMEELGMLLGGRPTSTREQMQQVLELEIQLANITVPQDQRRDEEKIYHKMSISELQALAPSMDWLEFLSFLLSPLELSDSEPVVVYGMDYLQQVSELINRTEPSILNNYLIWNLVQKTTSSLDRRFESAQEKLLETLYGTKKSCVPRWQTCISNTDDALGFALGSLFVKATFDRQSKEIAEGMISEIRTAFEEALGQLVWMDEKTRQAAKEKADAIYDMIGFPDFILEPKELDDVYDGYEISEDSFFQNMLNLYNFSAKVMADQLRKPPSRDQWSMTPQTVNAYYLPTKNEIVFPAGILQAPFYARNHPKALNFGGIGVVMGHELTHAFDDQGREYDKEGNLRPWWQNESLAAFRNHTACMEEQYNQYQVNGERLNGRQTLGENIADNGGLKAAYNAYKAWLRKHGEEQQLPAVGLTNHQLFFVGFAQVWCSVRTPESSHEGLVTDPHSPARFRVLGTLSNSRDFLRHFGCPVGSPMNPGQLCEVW
# UniProt Q9H777: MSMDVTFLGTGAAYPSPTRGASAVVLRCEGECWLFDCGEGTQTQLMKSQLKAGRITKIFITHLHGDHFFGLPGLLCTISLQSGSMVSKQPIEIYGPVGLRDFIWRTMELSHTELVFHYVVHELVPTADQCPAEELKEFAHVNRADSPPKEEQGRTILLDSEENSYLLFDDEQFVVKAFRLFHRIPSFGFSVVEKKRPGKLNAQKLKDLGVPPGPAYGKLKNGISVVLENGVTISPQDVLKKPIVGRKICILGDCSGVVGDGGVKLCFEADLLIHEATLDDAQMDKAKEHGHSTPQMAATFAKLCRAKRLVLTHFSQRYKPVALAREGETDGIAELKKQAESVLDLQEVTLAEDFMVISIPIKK
# UniProt P55199: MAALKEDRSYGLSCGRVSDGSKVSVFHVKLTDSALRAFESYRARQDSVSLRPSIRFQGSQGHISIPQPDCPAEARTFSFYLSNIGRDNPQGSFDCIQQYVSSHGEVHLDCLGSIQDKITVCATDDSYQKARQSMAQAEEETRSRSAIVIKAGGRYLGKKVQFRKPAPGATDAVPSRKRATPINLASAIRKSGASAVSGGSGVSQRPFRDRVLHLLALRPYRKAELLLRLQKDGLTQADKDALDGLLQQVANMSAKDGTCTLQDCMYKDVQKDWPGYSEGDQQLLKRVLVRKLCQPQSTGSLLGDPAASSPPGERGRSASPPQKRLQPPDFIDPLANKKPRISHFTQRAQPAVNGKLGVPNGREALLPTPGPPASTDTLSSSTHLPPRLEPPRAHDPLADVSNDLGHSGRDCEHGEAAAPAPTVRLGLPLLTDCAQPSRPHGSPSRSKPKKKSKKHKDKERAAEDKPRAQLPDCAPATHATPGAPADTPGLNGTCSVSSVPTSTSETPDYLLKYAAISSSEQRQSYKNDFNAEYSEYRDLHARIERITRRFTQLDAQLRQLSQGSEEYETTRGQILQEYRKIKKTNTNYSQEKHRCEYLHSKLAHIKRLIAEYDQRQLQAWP
# UniProt Q14156: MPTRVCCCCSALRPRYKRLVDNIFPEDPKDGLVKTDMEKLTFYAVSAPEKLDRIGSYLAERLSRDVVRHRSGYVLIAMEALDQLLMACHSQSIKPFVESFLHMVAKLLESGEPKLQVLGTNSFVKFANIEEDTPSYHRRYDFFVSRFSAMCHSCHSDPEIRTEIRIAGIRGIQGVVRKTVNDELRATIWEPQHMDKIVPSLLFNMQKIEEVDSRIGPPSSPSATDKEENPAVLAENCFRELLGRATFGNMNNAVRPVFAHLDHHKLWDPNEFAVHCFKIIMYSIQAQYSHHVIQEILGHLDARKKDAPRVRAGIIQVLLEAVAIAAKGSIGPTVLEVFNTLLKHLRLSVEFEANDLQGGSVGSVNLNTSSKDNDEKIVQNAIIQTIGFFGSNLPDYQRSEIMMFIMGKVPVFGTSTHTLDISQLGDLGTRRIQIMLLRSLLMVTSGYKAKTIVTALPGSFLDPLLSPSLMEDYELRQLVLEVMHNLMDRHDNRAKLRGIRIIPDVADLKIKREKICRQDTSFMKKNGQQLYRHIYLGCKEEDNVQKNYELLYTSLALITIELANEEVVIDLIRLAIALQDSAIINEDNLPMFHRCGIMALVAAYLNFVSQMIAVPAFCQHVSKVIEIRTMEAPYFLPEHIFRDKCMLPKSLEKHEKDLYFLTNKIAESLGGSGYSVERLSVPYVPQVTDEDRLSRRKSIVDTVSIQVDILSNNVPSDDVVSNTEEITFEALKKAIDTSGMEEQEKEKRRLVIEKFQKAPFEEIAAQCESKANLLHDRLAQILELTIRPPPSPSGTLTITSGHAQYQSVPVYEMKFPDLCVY
# Legend:
# Experiment in all cases: log2 fold change, soluble protein after heating vs DMSO (PISA); higher = thermal stabilisation; K562 cells, 10 uM, 30 min; active = over 0.2 and 3.5 SD of the protein, either way, in both replicates (recomputed)
# [1] = compound: CS(=O)(=O)c1ccc(-c2cnc(N)c(C(=O)Nc3ccccc3)n2)cc1
# Procedure, shortened: (§1)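 Soluble protein was defined as the supernatant after 21,000xg for 90 min. It came from K562 cells at 2×10^6 cells/mL given 10 μM compound for 30 min, heated in aliquots for 3 min across 48°C-58°C, pooled, and extracted in PBS with 0.5% NP-40 at 4°C, and was quantified by TMTpro 16plex LC-MS/MS with equalised channel sums. Thermal stability against control samples, from duplicates, is reported as log2 fold change.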
# [2] = compound: C[C@@H](Oc1cc(-c2cnn(C3CCNCC3)c2)cnc1N)c1c(Cl)ccc(F)c1Cl [crizotinib]
# Procedure, shortened: as §1
# [3] = compound: C[C@@H]1COCCN1C2=NC(=NC(=C2)C3(CC3)S(=O)(=O)C)C4=C5C=CNC5=CC=C4
# Procedure, shortened: as §1
# [4] = compound: C[C@H](C1=CC=C(C=C1)C(=O)NC2=C3C=CNC3=NC=C2)N
# Procedure, shortened: as §1
# [5] = compound: C[C@H](Nc1ncnc2nc[nH]c12)c1cc2cccc(Cl)c2c(=O)n1-c1ccccc1 [duvelisib]
# Procedure, shortened: as §1
# [6] = compound: Cc1cc(Nc2cc(CN3CCOCC3)c3nc(C)c(Cc4ccc(Cl)cc4F)n3n2)n[nH]1 [gandotinib]
# Procedure, shortened: as §1
# [7] = compound: Cc1cc(Nc2cc(N3CCN(C)CC3)nc(Sc3ccc(NC(=O)C4CC4)cc3)n2)n[nH]1 [tozasertib]
# Procedure, shortened: as §1
# [8] = compound: Cc1cc(SCc2sc(-c3ccc(C(F)(F)F)cc3)nc2C)ccc1OCC(=O)O
# Procedure, shortened: as §1
# [9] = compound: Cc1ccc(-n2nc(C(C)(C)C)cc2NC(=O)Nc2ccc(OCCN3CCOCC3)c3ccccc23)cc1 [doramapimod]
# Procedure, shortened: as §1
# [10] = compound: Cc1ccc(C(=O)N(CCCN)[C@@H](c2nc3cc(Cl)ccc3c(=O)n2Cc2ccccc2)C(C)C)cc1 [ispinesib]
# Procedure, shortened: as §1
# [11] = compound: Cc1ccc(NC(=O)c2ccc(CN3CC[C@H](N(C)C)C3)c(C(F)(F)F)c2)cc1Nc1nccc(-c2cncnc2)n1 [bafetinib]
# Procedure, shortened: as §1
# [12] = compound: Cc1cccc(CC(=O)N2CCc3c2ccc(-c2cn(C)c4ncnc(N)c24)c3F)n1
# Procedure, shortened: as §1
# [13] = compound: Cc1nc(Nc2ncc(C(=O)Nc3c(C)cccc3Cl)s2)cc(N2CCN(CCO)CC2)n1 [dasatinib]
# Procedure, shortened: as §1
# [14] = compound: Cn1cc(-c2ccc3c(c2)CCN3C(=O)Cc2cccc(C(F)(F)F)c2)c2c(N)ncnc21
# Procedure, shortened: as §1
# [15] = compound: Cn1cc(-c2ccc3nnc(C(F)(F)c4ccc5ncccc5c4)n3n2)cn1
# Procedure, shortened: as §1
# [16] = compound: Cn1cncc1[C@@](N)(c1ccc(Cl)cc1)c1ccc2c(c1)c(-c1cccc(Cl)c1)cc(=O)n2C [tipifarnib]
# Procedure, shortened: as §1
# [17] = compound: FC(F)(F)c1ccc(/C=C/c2nc(COc3ccc(CCCCn4ccnn4)cc3)co2)cc1 [mubritinib]
# Procedure, shortened: as §1
# [18] = compound: Cc1cn(-c2cc(NC(=O)c3ccc(C)c(Nc4nccc(-c5cccnc5)n4)c3)cc(C(F)(F)F)c2)cn1 [nilotinib]
# Procedure, shortened: as §1
# [19] = compound: Cc1nc(Nc2n[nH]c3c2CN(C(=O)N[C@H](CN(C)C)c2ccccc2)C3(C)C)c2sccc2n1
# Procedure, shortened: as §1
# [20] = compound: Cc1ncc(-c2ccnc(Nc3ccc(S(C)(=O)=O)cc3)n2)n1C(C)C
# Procedure, shortened: as §1
Target,log2 fold change [1],log2 fold change [2],log2 fold change [3],log2 fold change [4],log2 fold change [5],log2 fold change [6],log2 fold change [7],log2 fold change [8],log2 fold change [9],log2 fold change [10],log2 fold change [11],log2 fold change [12],log2 fold change [13],log2 fold change [14],log2 fold change [15],log2 fold change [16],log2 fold change [17],log2 fold change [18],log2 fold change [19],log2 fold change [20]
EIF4ENIF1 isoform 3 (UniProt Q9NRA8),inactive: -0.034,inactive: -0.098,inactive: -0.139,inactive: 0.018,inactive: 0.038,inactive: 0.03,inactive: 0.011,inactive: 0.067,inactive: -0.037,inactive: -0.035,inactive: -0.089,inactive: -0.21,inactive: -0.226,inactive: 0.026,inactive: -0.044,inactive: -0.033,inactive: 0,–,–,–
EIF3G (UniProt K7ER90),inactive: 0.054,inactive: 0.02,inactive: 0.08,inactive: -0.124,inactive: 0.043,–,inactive: -0.17,inactive: 0.026,inactive: -0.007,–,inactive: -0.007,–,inactive: -0.068,inactive: -0.057,–,–,inactive: -0.13,inactive: 0.082,inactive: -0.166,inactive: 0.141
ENO3 (UniProt P13929),inactive: -0.049,inactive: 0.027,inactive: -0.004,inactive: -0.129,inactive: 0.088,inactive: -0.003,inactive: 0.006,inactive: 0.068,inactive: -0.113,inactive: 0.082,inactive: 0.006,inactive: 0.07,inactive: 0,inactive: 0.042,inactive: -0.044,inactive: -0.095,inactive: -0.052,inactive: 0.002,inactive: 0.062,inactive: -0.01
EIPR1 (UniProt Q53HC9),inactive: 0.041,inactive: 0.105,inactive: -0.046,inactive: -0.022,inactive: -0.016,inactive: 0.036,inactive: 0.042,inactive: -0.021,inactive: -0.038,inactive: 0.1,inactive: 0.021,inactive: 0.003,inactive: 0.051,inactive: 0.027,inactive: 0.041,inactive: -0.074,inactive: 0.058,inactive: 0,inactive: -0.043,inactive: 0.005
EIF3B isoform 2 (UniProt P55884),inactive: -0.017,inactive: -0.1,inactive: -0.078,inactive: 0.181,inactive: -0.042,inactive: 0.03,inactive: 0.089,inactive: 0.109,inactive: 0.074,inactive: -0.164,inactive: 0.09,inactive: 0.112,inactive: -0.046,inactive: -0.111,inactive: -0.069,inactive: -0.05,inactive: -0.066,inactive: -0.101,inactive: -0.054,inactive: 0.023
ENTPD5 (UniProt O75356),inactive: -0.042,inactive: -0.018,inactive: 0.041,inactive: -0.061,inactive: 0.022,–,inactive: 0.143,inactive: -0.009,inactive: 0.041,inactive: 0.054,inactive: 0.105,–,inactive: -0.014,inactive: -0.066,inactive: -0.017,inactive: 0.105,inactive: 0.01,inactive: 0.034,inactive: -0.065,inactive: -0.013
ENTPD6 (UniProt O75354),inactive: 0.144,–,inactive: 0.04,inactive: 0.107,inactive: 0.029,inactive: 0.087,inactive: -0.167,inactive: -0.019,–,inactive: -0.117,inactive: 0.032,inactive: -0.016,inactive: 0.112,inactive: -0.031,inactive: -0.097,inactive: 0.068,inactive: -0.098,inactive: 0.014,inactive: -0.15,inactive: -0.025
ELMO1 (UniProt Q92556),inactive: 0.06,inactive: -0.019,inactive: 0,–,–,–,–,inactive: -0.043,inactive: 0.033,inactive: -0.299,inactive: 0.033,–,inactive: 0.03,–,inactive: 0.06,–,inactive: -0.087,inactive: -0.038,inactive: 0.026,inactive: -0.001
EIF1B (UniProt O60739),inactive: 0.063,inactive: 0.147,inactive: 0.066,–,–,–,–,–,inactive: -0.08,inactive: 0.192,inactive: -0.127,–,–,–,inactive: -0.039,–,inactive: -0.053,–,–,–
EIF2AK1 (UniProt Q9BQI3),inactive: 0.023,inactive: 0.015,inactive: 0.015,inactive: 0.045,–,inactive: 0.137,–,inactive: 0.053,inactive: 0.068,inactive: -0.024,inactive: -0.162,inactive: 0.171,inactive: -0.068,inactive: 0.19,inactive: 0,inactive: -0.035,inactive: -0.025,–,–,–
EIF4G3 isoform 3 (UniProt O43432),inactive: 0.053,inactive: -0.106,–,inactive: 0.074,–,–,–,inactive: 0.075,inactive: 0.013,inactive: -0.02,inactive: -0.01,–,inactive: -0.006,inactive: -0.073,inactive: 0.056,inactive: 0.083,inactive: -0.005,inactive: -0.043,inactive: -0.12,inactive: 0.052
EIF4E2 (UniProt O60573),inactive: 0.151,inactive: -0.018,inactive: -0.027,inactive: 0.085,–,–,–,inactive: 0.07,inactive: -0.069,inactive: -0.087,inactive: -0.055,–,inactive: -0.232,inactive: 0.082,inactive: -0.059,inactive: -0.127,inactive: 0.035,inactive: -0.094,inactive: -0.052,inactive: -0.004
EFCAB14 (UniProt O75071),inactive: 0.045,active: -0.301,inactive: 0.083,inactive: 0.041,–,inactive: -0.009,–,inactive: -0.006,inactive: -0.01,inactive: -0.004,inactive: -0.008,inactive: -0.056,inactive: 0.075,inactive: -0.123,inactive: -0.048,inactive: -0.062,inactive: 0.081,inactive: 0.084,inactive: 0.011,inactive: 0.003
EEF1AKNMT (UniProt Q8N6R0),inactive: -0.011,inactive: -0.059,inactive: 0.006,inactive: 0.111,–,inactive: -0.09,–,inactive: 0.153,inactive: 0.077,inactive: -0.072,inactive: 0.067,inactive: -0.008,inactive: -0.118,inactive: -0.031,inactive: 0.003,inactive: -0.154,inactive: 0.089,inactive: -0.02,inactive: -0.062,inactive: 0.084
EGFL7 (UniProt Q9UHF1),inactive: -0.051,–,inactive: -0.21,–,–,inactive: 0.216,–,–,–,–,inactive: 0.083,inactive: 0.003,–,–,–,–,–,–,–,–
EFEMP1 (UniProt Q12805),inactive: -0.071,inactive: -0.126,–,inactive: -0.141,inactive: 0.116,inactive: -0.186,inactive: -0.081,inactive: -0.323,inactive: -0.032,inactive: 0.287,–,inactive: -0.036,inactive: -0.004,inactive: 0.164,inactive: -0.156,inactive: 0.086,–,–,–,–
EEF1AKMT4-ECE2 (UniProt P0DPD8),inactive: -0.652,inactive: 0.056,–,–,inactive: 0.442,–,–,inactive: 0.202,inactive: 0.105,–,inactive: -0.245,–,inactive: -0.105,–,–,–,–,–,–,–
EIF4E isoform 2 (UniProt P06730),inactive: 0.198,inactive: 0.165,active: 0.4,inactive: -0.099,–,inactive: -0.006,–,inactive: -0.02,inactive: -0.045,inactive: 0.159,inactive: 0.012,inactive: 0.05,inactive: 0.013,inactive: 0.125,inactive: 0.082,inactive: -0.029,inactive: 0.045,inactive: 0.199,inactive: -0.072,inactive: 0.272
ELAC1 (UniProt Q9H777),inactive: -0.045,inactive: 0.011,inactive: -0.13,inactive: -0.137,–,inactive: -0.021,–,inactive: 0.004,inactive: 0.007,–,–,inactive: 0.124,inactive: -0.073,inactive: -0.032,–,inactive: 0.036,–,inactive: 0.145,inactive: -0.111,inactive: -0.103
"EED, A0A5F9ZI63",inactive: -0.074,inactive: 0.045,inactive: -0.047,inactive: 0.007,–,inactive: 0.07,–,inactive: -0.013,inactive: 0.028,inactive: 0.019,inactive: 0.019,inactive: -0.024,inactive: 0.015,inactive: -0.076,inactive: -0.029,inactive: -0.014,inactive: -0.066,inactive: -0.027,inactive: 0.043,inactive: -0.025
ELL (UniProt P55199),inactive: -0.073,–,inactive: 0.13,inactive: 0.031,inactive: -0.03,inactive: -0.036,inactive: -0.029,inactive: -0.222,–,inactive: -0.097,inactive: 0.237,inactive: -0.014,inactive: -0.133,inactive: -0.036,inactive: 0.014,–,–,inactive: -0.331,inactive: -0.196,inactive: -0.12
EFR3A (UniProt Q14156),inactive: -0.055,–,inactive: 0.006,–,–,–,–,–,–,–,–,–,–,–,–,–,inactive: 0.204,inactive: 0.163,inactive: -0.004,inactive: 0.015
EML4 (UniProt Q9HC35),inactive: 0.012,–,inactive: -0.015,inactive: 0.286,inactive: -0.012,inactive: 0.024,inactive: -0.043,inactive: 0.135,inactive: 0.158,inactive: -0.154,inactive: 0.094,inactive: 0.056,inactive: -0.04,inactive: -0.023,inactive: -0.014,inactive: -0.066,inactive: 0.015,inactive: -0.099,inactive: 0.03,inactive: 0.021

# Reformatted with bars between the fields: part of the list above.
Target | log2 fold change [1] | log2 fold change [2] | log2 fold change [3] | log2 fold change [4] | log2 fold change [5] | log2 fold change [6] | log2 fold change [7] | log2 fold change [8] | log2 fold change [9] | log2 fold change [10] | log2 fold change [11] | log2 fold change [12] | log2 fold change [13] | log2 fold change [14] | log2 fold change [15] | log2 fold change [16] | log2 fold change [17] | log2 fold change [18] | log2 fold change [19] | log2 fold change [20]
ELAC1 (UniProt Q9H777) | inactive: -0.045 | inactive: 0.011 | inactive: -0.13 | inactive: -0.137 | – | inactive: -0.021 | – | inactive: 0.004 | inactive: 0.007 | – | – | inactive: 0.124 | inactive: -0.073 | inactive: -0.032 | – | inactive: 0.036 | – | inactive: 0.145 | inactive: -0.111 | inactive: -0.103
EED, A0A5F9ZI63 | inactive: -0.074 | inactive: 0.045 | inactive: -0.047 | inactive: 0.007 | – | inactive: 0.07 | – | inactive: -0.013 | inactive: 0.028 | inactive: 0.019 | inactive: 0.019 | inactive: -0.024 | inactive: 0.015 | inactive: -0.076 | inactive: -0.029 | inactive: -0.014 | inactive: -0.066 | inactive: -0.027 | inactive: 0.043 | inactive: -0.025

# Reference: the supplement of paper PMC10849652
